Source: PMC7893075
No constants are given. Whether binding was seen depends on the method and setting. Binding seen in cells or lysates may run through a third protein. Some entries that bind do so weakly or less than the wild type.

Protein sequences, listed by entry. Tags and fused reporters are not part of them.
UniProt Q14203: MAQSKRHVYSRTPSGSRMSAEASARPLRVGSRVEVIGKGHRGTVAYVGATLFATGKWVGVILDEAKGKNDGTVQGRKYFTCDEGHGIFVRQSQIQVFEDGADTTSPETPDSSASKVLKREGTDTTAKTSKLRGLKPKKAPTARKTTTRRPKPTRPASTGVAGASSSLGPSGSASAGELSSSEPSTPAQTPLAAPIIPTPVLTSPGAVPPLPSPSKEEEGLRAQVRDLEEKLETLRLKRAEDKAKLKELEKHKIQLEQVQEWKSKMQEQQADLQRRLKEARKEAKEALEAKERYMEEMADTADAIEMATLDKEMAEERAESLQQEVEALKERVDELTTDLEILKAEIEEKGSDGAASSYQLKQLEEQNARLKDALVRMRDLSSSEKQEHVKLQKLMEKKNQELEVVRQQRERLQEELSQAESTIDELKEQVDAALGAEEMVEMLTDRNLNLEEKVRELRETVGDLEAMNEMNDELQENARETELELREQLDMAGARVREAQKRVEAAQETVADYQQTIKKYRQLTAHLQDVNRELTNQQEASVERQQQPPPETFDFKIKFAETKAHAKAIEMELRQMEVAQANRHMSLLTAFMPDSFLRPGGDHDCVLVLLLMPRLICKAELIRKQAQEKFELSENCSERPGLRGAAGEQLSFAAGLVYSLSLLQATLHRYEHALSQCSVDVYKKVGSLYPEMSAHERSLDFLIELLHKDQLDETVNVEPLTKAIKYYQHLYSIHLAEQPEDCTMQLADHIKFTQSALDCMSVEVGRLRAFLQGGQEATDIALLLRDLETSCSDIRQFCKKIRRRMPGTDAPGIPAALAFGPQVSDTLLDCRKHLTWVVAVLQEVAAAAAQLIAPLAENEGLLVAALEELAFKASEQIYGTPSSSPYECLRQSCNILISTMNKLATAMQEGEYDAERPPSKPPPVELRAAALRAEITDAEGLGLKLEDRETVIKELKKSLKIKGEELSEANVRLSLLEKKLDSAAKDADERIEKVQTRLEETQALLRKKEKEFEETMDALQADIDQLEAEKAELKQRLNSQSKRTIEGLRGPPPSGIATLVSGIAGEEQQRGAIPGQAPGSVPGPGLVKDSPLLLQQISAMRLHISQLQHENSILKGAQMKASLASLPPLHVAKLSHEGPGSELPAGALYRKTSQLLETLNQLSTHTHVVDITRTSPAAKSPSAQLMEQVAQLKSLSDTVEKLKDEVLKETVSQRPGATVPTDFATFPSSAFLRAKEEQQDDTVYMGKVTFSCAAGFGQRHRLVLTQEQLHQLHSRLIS
UniProt Q14204: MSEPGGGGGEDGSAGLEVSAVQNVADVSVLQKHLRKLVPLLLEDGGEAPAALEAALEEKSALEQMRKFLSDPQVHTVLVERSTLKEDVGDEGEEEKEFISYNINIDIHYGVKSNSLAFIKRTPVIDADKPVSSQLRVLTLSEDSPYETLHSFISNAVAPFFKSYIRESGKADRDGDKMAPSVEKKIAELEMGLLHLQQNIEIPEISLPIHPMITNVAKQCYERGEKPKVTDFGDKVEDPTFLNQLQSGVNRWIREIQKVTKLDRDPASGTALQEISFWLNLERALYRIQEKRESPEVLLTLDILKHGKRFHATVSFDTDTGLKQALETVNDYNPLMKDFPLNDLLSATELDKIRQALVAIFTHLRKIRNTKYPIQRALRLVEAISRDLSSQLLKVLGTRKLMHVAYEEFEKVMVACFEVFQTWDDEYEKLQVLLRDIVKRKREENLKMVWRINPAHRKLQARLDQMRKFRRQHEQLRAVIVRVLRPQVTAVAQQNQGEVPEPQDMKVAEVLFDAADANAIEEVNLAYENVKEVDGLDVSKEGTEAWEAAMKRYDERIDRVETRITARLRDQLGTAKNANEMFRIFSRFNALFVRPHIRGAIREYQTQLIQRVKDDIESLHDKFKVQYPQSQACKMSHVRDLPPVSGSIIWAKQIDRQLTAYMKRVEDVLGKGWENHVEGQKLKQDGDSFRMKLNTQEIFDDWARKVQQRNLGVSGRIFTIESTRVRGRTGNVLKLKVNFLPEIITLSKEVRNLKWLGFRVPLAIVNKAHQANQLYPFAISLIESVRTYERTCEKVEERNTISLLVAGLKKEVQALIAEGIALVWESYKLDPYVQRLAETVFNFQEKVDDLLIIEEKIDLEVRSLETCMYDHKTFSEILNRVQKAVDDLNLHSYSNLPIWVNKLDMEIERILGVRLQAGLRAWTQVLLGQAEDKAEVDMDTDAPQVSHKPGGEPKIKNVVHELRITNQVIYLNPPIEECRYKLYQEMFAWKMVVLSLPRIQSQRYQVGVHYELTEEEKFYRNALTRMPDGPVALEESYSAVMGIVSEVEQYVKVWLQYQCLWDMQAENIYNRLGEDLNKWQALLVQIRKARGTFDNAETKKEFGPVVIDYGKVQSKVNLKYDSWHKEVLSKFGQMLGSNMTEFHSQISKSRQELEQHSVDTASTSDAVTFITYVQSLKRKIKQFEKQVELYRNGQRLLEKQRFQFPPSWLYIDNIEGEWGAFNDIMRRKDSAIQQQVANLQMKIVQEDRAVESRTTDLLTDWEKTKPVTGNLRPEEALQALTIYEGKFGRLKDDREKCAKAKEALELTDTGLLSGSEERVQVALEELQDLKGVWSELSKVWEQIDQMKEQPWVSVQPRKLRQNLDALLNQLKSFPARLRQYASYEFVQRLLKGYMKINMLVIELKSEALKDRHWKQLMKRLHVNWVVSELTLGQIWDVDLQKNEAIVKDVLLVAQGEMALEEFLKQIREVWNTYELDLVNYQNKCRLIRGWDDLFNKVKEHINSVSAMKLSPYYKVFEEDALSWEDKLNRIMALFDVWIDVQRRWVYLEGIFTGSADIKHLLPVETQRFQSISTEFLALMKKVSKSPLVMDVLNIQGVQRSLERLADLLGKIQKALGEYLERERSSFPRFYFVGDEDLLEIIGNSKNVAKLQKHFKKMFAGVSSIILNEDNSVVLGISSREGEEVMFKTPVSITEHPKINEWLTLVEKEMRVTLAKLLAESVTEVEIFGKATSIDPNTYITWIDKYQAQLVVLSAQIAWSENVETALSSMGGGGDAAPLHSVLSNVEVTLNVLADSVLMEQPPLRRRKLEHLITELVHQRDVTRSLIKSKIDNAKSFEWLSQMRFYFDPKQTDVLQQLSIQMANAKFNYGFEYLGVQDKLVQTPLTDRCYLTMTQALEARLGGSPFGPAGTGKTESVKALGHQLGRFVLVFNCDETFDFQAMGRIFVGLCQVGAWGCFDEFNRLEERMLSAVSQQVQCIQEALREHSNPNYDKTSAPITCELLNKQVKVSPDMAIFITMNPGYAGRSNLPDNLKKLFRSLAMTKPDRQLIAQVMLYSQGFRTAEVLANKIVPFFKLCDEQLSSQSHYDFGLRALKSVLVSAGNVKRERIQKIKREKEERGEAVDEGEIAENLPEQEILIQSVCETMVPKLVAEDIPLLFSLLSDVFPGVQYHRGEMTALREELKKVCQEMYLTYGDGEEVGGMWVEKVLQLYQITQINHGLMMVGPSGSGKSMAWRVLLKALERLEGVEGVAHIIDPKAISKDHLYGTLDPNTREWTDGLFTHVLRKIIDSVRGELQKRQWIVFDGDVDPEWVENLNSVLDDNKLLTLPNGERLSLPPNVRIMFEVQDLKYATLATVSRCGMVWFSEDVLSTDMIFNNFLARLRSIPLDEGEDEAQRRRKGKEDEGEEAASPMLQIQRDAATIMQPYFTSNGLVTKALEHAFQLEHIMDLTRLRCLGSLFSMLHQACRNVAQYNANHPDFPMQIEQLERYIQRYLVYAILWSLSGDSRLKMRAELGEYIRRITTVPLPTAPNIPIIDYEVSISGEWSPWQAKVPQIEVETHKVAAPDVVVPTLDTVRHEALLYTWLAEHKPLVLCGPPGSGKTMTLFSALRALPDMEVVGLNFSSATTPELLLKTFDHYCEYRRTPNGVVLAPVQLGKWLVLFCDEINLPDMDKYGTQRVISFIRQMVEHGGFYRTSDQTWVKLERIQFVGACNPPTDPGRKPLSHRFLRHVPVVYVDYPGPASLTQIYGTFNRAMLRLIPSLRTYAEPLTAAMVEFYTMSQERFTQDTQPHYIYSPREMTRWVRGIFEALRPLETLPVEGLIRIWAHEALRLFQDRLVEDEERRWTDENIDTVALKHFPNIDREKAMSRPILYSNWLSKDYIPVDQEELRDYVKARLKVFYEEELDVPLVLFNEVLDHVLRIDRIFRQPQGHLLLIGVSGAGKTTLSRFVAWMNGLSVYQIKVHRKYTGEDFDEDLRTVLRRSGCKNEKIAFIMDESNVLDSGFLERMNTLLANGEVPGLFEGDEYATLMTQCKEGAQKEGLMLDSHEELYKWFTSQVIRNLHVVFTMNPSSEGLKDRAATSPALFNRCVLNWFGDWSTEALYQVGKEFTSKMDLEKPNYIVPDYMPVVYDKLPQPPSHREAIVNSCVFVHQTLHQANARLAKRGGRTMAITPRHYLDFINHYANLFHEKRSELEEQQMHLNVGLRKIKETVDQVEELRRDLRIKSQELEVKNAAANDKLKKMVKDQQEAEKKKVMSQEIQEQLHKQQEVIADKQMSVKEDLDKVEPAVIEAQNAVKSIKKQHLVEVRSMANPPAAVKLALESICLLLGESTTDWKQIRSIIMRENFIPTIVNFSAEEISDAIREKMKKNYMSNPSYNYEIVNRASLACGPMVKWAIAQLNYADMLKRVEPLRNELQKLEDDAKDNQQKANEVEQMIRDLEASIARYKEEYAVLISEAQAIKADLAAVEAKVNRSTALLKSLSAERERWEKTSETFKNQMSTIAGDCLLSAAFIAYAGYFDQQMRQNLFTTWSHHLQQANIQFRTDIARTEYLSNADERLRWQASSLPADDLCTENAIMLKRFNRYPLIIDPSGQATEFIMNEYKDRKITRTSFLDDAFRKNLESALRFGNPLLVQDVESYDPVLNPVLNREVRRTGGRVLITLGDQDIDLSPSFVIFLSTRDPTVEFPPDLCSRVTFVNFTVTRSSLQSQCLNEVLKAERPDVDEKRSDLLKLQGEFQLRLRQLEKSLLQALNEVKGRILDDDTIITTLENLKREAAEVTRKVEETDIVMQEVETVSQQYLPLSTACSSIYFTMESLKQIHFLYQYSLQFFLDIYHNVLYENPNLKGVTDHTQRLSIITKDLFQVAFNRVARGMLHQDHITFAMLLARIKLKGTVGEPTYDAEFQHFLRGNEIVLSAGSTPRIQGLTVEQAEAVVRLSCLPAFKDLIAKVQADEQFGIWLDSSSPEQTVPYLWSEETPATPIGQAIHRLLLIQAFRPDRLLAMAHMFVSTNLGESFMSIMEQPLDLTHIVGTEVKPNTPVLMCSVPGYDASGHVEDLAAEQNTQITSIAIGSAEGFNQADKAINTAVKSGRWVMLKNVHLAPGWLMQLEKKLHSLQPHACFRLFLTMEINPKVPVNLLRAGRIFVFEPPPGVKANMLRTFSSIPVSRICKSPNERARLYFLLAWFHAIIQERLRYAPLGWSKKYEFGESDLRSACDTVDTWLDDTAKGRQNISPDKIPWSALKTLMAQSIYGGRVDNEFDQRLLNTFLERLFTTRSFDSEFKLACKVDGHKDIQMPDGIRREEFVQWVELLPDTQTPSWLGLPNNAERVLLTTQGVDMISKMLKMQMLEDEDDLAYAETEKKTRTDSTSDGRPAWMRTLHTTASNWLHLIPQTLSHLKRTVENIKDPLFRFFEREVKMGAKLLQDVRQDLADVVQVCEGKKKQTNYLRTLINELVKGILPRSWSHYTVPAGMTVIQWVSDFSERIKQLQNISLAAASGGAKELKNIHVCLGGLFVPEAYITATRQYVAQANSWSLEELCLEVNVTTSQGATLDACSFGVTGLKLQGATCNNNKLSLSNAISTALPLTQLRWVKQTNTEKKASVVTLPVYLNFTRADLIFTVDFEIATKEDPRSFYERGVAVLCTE

Target: p150^Glued, subunit of dynactin, endogenous (human (endogenous in HUVEC)) (UniProt Q14203)
Experiment: co-IP; endogenous proteins in HUVECs treated with 30 µM histamine or vehicle, cross-linked with 1% PFA, NP-40 lysate; IP with anti-Rab46, anti-DHC, anti-p150 or anti-ATP1α1 antibody or control IgG on Protein G sepharose; western blot

Substance: dynein heavy chain (DHC), endogenous (from UniProt Q14204 1-4646)
- binding: binds
